Amino acid sequences for entries named in this document (tags omitted). A change or cut given only in a name is not applied to a line headed by its entry.
UniProt Q9A779: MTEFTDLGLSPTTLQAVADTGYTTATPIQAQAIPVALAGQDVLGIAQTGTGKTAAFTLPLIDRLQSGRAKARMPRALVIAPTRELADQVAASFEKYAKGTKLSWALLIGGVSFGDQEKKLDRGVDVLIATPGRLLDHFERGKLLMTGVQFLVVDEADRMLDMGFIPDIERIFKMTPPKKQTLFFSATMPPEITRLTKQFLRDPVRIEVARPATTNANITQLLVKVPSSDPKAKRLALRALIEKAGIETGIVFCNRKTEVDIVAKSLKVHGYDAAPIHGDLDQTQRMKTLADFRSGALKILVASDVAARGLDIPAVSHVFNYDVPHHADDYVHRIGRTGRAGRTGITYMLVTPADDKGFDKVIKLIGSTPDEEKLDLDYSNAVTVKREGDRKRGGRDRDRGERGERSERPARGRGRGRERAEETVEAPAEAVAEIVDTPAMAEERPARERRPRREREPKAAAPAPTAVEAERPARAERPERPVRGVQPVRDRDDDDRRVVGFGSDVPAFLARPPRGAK
UniProt Q9A7L8: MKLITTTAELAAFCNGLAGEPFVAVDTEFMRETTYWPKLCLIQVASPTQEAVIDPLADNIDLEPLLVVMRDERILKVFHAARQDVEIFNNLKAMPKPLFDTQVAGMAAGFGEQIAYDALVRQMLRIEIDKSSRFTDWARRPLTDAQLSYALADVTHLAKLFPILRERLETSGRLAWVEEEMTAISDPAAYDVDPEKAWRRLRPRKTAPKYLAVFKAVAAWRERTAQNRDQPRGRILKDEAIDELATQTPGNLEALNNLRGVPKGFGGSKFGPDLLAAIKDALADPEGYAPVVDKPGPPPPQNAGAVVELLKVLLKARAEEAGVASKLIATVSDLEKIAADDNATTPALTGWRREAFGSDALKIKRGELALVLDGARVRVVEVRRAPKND
UniProt Q9A749: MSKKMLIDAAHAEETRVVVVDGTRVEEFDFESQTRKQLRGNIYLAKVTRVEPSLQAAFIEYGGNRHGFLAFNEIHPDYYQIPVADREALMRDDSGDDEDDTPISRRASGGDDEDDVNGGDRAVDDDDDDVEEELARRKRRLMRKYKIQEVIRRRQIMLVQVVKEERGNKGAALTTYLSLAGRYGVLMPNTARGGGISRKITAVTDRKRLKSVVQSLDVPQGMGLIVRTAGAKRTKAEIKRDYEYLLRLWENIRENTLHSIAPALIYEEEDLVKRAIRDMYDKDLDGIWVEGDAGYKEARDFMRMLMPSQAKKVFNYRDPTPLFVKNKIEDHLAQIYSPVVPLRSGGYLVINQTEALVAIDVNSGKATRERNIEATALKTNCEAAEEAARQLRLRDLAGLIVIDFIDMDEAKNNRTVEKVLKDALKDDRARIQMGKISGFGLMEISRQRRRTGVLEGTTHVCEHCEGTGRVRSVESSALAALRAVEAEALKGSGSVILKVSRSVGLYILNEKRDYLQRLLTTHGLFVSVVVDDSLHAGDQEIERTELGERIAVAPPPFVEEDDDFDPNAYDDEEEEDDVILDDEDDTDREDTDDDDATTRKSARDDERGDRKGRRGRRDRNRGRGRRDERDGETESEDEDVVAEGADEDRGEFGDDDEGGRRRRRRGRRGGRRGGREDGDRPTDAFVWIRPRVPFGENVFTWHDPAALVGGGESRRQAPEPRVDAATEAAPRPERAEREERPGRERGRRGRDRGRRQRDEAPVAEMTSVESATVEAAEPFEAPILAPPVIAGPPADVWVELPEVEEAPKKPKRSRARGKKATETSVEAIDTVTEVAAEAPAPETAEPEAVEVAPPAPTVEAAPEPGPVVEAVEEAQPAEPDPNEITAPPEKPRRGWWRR
UniProt Q9A299: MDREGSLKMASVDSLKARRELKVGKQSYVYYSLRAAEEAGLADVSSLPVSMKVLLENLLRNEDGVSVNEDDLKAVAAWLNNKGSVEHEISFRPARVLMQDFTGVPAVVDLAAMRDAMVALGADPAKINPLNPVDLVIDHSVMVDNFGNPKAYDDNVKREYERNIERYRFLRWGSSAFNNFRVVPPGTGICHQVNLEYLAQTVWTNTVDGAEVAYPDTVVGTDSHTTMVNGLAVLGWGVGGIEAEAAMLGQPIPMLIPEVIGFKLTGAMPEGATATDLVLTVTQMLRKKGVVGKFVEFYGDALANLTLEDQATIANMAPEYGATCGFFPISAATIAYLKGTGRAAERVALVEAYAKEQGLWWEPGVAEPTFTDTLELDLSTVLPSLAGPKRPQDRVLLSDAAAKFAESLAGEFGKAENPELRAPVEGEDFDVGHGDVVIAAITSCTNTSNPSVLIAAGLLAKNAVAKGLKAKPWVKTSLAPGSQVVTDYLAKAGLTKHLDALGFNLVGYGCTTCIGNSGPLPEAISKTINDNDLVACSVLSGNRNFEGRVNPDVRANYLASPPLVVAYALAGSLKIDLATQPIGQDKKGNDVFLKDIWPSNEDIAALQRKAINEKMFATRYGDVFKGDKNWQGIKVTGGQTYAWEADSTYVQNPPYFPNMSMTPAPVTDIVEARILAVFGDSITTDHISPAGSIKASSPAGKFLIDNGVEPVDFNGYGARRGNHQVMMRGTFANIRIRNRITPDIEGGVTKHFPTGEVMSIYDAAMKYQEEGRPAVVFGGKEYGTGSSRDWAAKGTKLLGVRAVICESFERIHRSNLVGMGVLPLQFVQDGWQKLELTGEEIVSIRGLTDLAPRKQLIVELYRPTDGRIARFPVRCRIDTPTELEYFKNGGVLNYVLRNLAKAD
UniProt Q99QM0: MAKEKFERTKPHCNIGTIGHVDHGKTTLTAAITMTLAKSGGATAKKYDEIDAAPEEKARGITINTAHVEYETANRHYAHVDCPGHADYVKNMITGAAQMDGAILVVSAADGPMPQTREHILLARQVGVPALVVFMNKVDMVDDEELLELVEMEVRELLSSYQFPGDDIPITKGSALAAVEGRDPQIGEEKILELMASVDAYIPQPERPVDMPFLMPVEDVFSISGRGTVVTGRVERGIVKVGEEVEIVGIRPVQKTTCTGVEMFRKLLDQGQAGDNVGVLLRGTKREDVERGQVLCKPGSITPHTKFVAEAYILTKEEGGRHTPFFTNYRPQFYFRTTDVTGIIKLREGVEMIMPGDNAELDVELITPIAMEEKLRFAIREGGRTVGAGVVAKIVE

In paper PMC4245959, “Molecular recognition of RhlB and RNase D in the Caulobacter crescentus RNA degradosome” (Nucleic Acids Research, 2014):

B1: polynucleotide phosphorylase (PNPase, cc0034), endogenous (enzyme, UniProt Q9AC32 1-712)
chain: MFDIKRKTIEWGGKTLVLETGRIARQADGAVLATMGETVVLATAVFAKSQKPGQDFFPLTVNYQEKTFAAGKIPGGFFKREGRPSEKETLVSRLIDRPIRPLFVKGFKNEVQVVVTVLQHDLENDPDILGMVAASAALCLSGAPFMGPIGAARVGWVDGAYVLNPTLDEMKESKMDLVVAGTADAVMMVESEIQELSEEIVLGGVNFAHQQMQAVIDAIIDLAEHAAKEPFAFEPEDTDAIKAKMKDLVGADIAAAYKIQKKQDRYEAVGAAKKKAIAALGLSDENPTGYDPLKLGAIFKELEADVVRRGILDTGLRIDGRDVKTVRPILGEVGILPRTHGSALFTRGETQAIVVATLGTGDDEQFIDALEGTYKESFLLHYNFPPYSVGETGRMGSPGRREIGHGKLAWRALRPMLPTKEDFPYTIRLVSEITESNGSSSMATVCGSSLAMMDAGVPLVRPVSGIAMGLILEQDGFAVLSDILGDEDHLGDMDFKVAGTSEGLTSLQMDIKIAGITPAIMEQALAQAKEGRAHILGEMNKAMDAPRADVGDFAPKIETINIPTDKIREVIGSGGKVIREIVATTGAKVDINDDGVVKVSASDGAKIKAAIDWIKSITDEAEVGKIYDGKVVKVVDFGAFVNFFGAKDGLVHVSQISNERVAKPSDVLKEGQMVKVKLLGFDDRGKTKLSMKVVDQETGEDLSKKEAAAEEA

How the values were obtained:
[1] = biological target: RhlB residues 416–517 with N-terminal GST tag (Caulobacter crescentus) (UniProt Q9A779); experiment: pull-down; GST-RhlB(416–517) as bait with C. crescentus cell lysate; SDS-PAGE; only the target purified
[2] = biological target: recombinant RNase D with an N-terminal hexa-histidine tag (Caulobacter crescentus (CB15)) (UniProt Q9A7L8); experiment: pull-down; ~0.5 mg purified 6xHis-RNase D on a His-select spin column; C. crescentus lysate passed over; washed with 20-mM Tris–HCl pH 7.5, 200-mM NaCl; eluted with 500-mM imidazole; SDS-PAGE; only the target purified
[3] = biological target: RNase E (cc1877), endogenous (Caulobacter crescentus (endogenous in C. crescentus lysate)) (UniProt Q9A749); experiment: co-IP; co-immunopurification from C. crescentus with an antibody raised against the S1 insert of RNase E; SDS-PAGE, MALDI mass spectrometry
[4] = biological target: RNase E with a chromosomally encoded 3xFLAG tag on the N-terminus (Caulobacter crescentus); experiment: co-IP; co-immunopurification with anti-FLAG monoclonal antibody from a strain with chromosomally encoded 3xFLAG-RNase E; SDS-PAGE, MALDI mass spectrometry

Row | Molecule | binding [1] | binding [2] | binding [3] | binding [4]
1 | DEAD-box RNA helicase RhlB (cc1847), endogenous (from UniProt Q9A779) (enzyme) | no binding | binds | binds | –
2 | RNase E (cc1877), endogenous (from UniProt Q9A749) (enzyme) | binds | binds | – | –
3 | aconitase (cc3667), endogenous (from UniProt Q9A299) (enzyme) | binds | binds | binds | –
4 | elongation factor Tu (TufA, cc3199), endogenous (from UniProt Q99QM0 1-396) | – | – | no binding | –
5 | B1 | binds | binds | binds | binds

No constants are given. Whether binding was seen depends on the method and setting. In cells and extracts the contact can be indirect. Binding can be weak; no strength is given.
